Results are given in words; binding and its absence hold for the method and conditions named. For some of these results: A result given as binding can be weak or reduced; the word gives no strength. For some of these results: Where a sequence is shown, tags or fusion partners need not be part of it. Blank lines part the entries; values can stand above or below the molecule they belong to.
Key:
[1] = target: GST-tagged Hsc70 (UniProt P63017); experiment: pull-down; GST or GST-tagged Hsc70, CSP, αSGT, βSGT immobilized on beads; CHL1ID in solution; overnight at 4°C in PBS pH 7.5 with 3% BSA, 0.1% Tween 20, 1 mM ADP or ATP; Western blot; both purified
[2] = target: GST-tagged αSGT (UniProt Q8BJU0); experiment: as above
[3] = target: T1, GST-tagged βSGT (UniProt Q8VD33); experiment: as above
T1 sequence: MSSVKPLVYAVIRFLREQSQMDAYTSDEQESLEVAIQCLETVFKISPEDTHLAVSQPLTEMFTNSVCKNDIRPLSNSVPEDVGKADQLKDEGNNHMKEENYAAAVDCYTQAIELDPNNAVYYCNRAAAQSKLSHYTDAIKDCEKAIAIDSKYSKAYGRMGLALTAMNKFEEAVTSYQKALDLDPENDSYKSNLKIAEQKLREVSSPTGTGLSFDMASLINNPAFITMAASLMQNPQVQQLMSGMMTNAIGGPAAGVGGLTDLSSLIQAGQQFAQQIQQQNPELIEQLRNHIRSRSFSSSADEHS

Sequences of proteins named here, by UniProt entry; tags and fusion partners are left off. A change or cut given only in a name is not applied to a line headed by its entry.
UniProt P63017: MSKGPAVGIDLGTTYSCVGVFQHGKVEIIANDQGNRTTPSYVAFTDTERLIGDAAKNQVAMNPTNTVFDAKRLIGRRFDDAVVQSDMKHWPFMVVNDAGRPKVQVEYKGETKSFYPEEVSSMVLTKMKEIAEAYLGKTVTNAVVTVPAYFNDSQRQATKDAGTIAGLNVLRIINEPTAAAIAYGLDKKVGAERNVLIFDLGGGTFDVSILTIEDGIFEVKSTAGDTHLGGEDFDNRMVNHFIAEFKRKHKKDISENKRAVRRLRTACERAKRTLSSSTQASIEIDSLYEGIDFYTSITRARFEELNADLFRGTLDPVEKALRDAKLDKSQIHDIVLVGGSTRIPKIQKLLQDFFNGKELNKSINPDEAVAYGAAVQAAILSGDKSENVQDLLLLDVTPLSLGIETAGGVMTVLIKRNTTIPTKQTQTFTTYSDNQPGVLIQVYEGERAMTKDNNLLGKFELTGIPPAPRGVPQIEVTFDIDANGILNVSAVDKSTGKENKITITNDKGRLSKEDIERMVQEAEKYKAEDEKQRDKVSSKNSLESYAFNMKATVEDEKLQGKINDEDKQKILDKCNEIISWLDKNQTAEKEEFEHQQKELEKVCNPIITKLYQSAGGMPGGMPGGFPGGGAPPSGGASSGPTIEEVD
UniProt Q8BJU0: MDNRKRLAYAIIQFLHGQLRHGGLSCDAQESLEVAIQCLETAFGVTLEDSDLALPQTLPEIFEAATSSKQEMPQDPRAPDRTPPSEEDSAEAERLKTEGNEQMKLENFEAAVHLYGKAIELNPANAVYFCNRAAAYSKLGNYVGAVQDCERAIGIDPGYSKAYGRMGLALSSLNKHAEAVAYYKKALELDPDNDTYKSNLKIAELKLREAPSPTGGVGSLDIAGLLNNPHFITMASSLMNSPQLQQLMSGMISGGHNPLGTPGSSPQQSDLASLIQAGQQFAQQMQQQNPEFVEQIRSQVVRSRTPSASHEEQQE
UniProt P70232: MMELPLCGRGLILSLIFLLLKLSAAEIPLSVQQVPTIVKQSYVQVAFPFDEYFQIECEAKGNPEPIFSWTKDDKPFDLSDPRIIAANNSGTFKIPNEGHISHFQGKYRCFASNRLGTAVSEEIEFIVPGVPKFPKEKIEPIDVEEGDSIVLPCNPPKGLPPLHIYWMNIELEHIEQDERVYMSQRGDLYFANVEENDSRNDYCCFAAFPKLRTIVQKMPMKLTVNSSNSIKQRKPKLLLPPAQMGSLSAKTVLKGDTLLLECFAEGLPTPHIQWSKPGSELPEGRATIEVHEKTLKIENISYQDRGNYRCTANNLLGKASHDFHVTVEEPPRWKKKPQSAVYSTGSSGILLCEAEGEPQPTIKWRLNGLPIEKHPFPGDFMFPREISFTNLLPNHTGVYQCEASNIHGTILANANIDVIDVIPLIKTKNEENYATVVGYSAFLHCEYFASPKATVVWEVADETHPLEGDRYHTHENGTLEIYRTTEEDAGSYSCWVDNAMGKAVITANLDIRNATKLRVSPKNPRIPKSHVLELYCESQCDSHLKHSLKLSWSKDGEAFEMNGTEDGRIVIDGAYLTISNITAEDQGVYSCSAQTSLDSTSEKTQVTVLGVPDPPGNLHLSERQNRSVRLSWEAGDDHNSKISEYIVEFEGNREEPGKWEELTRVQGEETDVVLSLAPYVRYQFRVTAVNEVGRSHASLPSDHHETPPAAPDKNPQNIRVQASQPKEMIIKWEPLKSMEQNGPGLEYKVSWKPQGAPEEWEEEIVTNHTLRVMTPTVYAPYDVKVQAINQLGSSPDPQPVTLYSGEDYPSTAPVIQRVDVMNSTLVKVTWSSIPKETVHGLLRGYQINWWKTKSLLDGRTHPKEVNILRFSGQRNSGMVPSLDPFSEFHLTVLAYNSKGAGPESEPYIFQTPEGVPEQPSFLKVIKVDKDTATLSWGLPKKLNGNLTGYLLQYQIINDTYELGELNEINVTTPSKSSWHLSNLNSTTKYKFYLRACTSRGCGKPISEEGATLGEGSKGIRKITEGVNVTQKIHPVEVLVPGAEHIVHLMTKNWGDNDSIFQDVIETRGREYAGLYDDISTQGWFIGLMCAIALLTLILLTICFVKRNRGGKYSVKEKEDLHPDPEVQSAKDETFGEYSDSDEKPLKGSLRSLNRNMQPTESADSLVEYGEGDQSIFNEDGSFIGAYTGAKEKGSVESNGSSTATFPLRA
UniProt P60879: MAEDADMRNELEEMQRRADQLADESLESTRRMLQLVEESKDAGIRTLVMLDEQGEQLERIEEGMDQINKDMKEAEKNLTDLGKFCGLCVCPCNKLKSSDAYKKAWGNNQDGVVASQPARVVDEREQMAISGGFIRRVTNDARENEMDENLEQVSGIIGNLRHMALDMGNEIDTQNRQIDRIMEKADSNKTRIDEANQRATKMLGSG
UniProt P63044: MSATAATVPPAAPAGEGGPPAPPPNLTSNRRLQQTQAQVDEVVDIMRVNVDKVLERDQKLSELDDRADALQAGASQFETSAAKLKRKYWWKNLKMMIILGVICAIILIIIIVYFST

[4] = target: T2, GST-tagged CSP (UniProt P60904); experiment: as above
T2 sequence: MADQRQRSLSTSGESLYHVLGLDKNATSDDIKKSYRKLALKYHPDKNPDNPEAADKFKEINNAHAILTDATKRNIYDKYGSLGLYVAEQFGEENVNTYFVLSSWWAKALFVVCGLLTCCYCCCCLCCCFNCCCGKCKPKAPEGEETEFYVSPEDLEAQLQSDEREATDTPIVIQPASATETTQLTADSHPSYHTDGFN

[5] = target: T2, GST-tagged CSP; experiment: pull-down; GST-tagged CSP immobilized on beads; mixture of Hsc70 and αSGT with or without CHL1ID in solution, in the presence of ADP or ATP; Western blot, optical density; both purified
[6] = target: recombinant CHL1 intracellular domain (CHL1ID), His6-tagged (UniProt P70232); experiment: ELISA; CHL1ID (1.9 µM) immobilized on plastic; SNAP25 (4 µM) or VAMP2 (6 µM) pre-treated by exposure to 42°C (non-native), overnight at 4°C in PBS, 0.05% Tween 20, 0.1% BSA; both purified
[7] = target: recombinant CHL1 intracellular domain (CHL1ID), His6-tagged (UniProt P70232); experiment: dynamic light scattering; recombinant proteins mixed in solution; 20°C; 22 measurements per sample; radii of particles; both purified
[8] = target: CHL1ID with deletion of the C-terminal 19 amino acid stretch, GST-tagged (UniProt P70232); experiment: pull-down; CHL1ID fragments immobilized on beads via the GST tag; Hsc70, CSP or αSGT in solution; Western blot; both purified

- binding [1]: binds
- binding [2]: binds
- binding [3]: no binding
- binding [4]: binds
- binding [5]: binds
Molecule: recombinant CHL1 intracellular domain (CHL1ID), His6-tagged (from UniProt P70232) (domain or fragment)

- binding [6]: binds
Molecule: recombinant SNAP25 (from UniProt P60879 1-206)

- binding [7]: binds
- binding [8]: no binding
Molecule: His6-tagged αSGT (from UniProt Q8BJU0 1-315)

- binding [6]: binds
Molecule: recombinant VAMP2 (from UniProt P63044 1-116)

- binding [7]: binds
B1: GST-tagged CSP (protein, UniProt P60904 1-198)
chain: MADQRQRSLSTSGESLYHVLGLDKNATSDDIKKSYRKLALKYHPDKNPDNPEAADKFKEINNAHAILTDATKRNIYDKYGSLGLYVAEQFGEENVNTYFVLSSWWAKALFVVCGLLTCCYCCCCLCCCFNCCCGKCKPKAPEGEETEFYVSPEDLEAQLQSDEREATDTPIVIQPASATETTQLTADSHPSYHTDGFN
